From PubChem BioAssay AID662 (National Center for Advancing Translational Sciences (NCATS), 2007)
Some of the results follow. Shown are side measurements of this screen, not its main read-out; they come without a call. Most of these compounds were active or inconclusive in the main read-out, so they are no random draw. The note in brackets gives the kind of curve behind each potency; many fits are weak.

Test: Cell signaling CRE-BLA (Fsk stim)
Conditions: CHO CRE-bla reporter (cAMP response element driving beta-lactamase), forskolin EC10, beta-lactamase ratio; measured here: 460 nm blue channel
Outline: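 qHTS titration format; CRE-bla CHO reporter; stimulus EC10 NKH 477, a water-soluble forskolin. Read: CCF4 460/530 nm ratio. Potency expressed as AC50 for activators or inhibitors.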

Row | SMILES | AC50
1 | CCC(=O)Nc1ccc(NC(=O)c2ccccn2)cn1 | 0.0126 µM [falling, full curve, poor fit]
2 | CCOc1c(N2CCCCC2)c(=O)c1=O | 25.1 µM [rising, single point]
3 | CN(C)S(=O)(=O)c1cccc(C(=O)OCC(=O)Nc2sccc2C(N)=O)c1 | 2.51 µM [rising, single point]
4 | N=C(N)SCC(=O)O | 0.0631 µM [rising, full curve, poor fit]
5 | C=CCOc1c(CNc2nccs2)cccc1OCC | 2.51 µM [falling, partial curve]
6 | COc1cccc(C2=NO[C@@H]3C(=O)N(Cc4ccccc4)C(=O)[C@H]23)c1OC | 0.01 µM [falling, full curve, poor fit]
7 | COc1ccc2[nH]cc(CCNc3nc(-c4ccccc4OC)nc4ccccc34)c2c1 | 10 µM [rising, partial curve]
8 | Cc1cccc(NS(=O)(=O)c2ccc(C)c(C(=O)OCC(=O)Nc3cc(C)on3)c2)c1 | 20 µM [falling, partial curve]
9 | COC(=O)c1cccc(NC(=O)c2nn(C)c(=O)c3ccccc23)c1 | 10 µM [rising, partial curve]
10 | N#Cc1nc(-c2ccco2)oc1NCc1ccc(F)cc1 | 10 µM [rising, single point]
11 | CCN(c1ccccc1)S(=O)(=O)c1cccc(C(=O)O)c1 | 3.98 µM [falling, single point]
12 | CCN(CC)C(=O)CSc1nnc(-c2ccccn2)n1-c1ccc(C)c(C)c1 | 25.1 µM [rising, single point]
13 | CN1CCN(c2ncc3nc(-c4cccc(C#N)c4)c(=O)n(C)c3n2)CC1 | 10 µM [rising, partial curve]
14 | Cc1ccc(Cn2ncc3c(N4CCN(c5ccccc5C)CC4)ncnc32)cc1 | 15.8 µM [falling, partial curve]
15 | COc1ccc(C(=O)N(CN2CCCC2=O)c2ccc(C)cc2)cc1 | 2 µM [falling, partial curve]
16 | COc1ccc2nc(NCCCNC(=O)c3cc(OC)c(OC)c(OC)c3)c(C#N)cc2c1 | 12.6 µM [rising, partial curve]
17 | Cc1nc(N2CCN(Cc3nc4ccccc4[nH]3)CC2)c2oc3ccccc3c2n1 | 5.01 µM [rising, partial curve]
18 | CC(C)(C)Oc1ncc(Br)c(OC(C)(C)C)n1 | 5.01 µM [falling, single point]
19 | O=C(c1ccco1)n1nc(NCc2ccccc2)nc1NCc1ccccc1 | 12.6 µM [rising, single point]
20 | COc1ccc(-c2[nH]ncc2Oc2ccccc2OC)c(O)c1 | 20 µM [falling, single point]
21 | COc1ccccc1Nc1nc(N)nc(CSc2nc(C)cc(C)n2)n1 | 10 µM [rising, partial curve]
22 | O=C(CCCn1c(=O)c2ccccc2n(CC(=O)NCc2ccco2)c1=O)NCc1ccco1 | 0.2 µM [falling, full curve]

Pulled by structure from the entries so far, 2 records:
Row | SMILES | AC50
14 | Cc1ccc(Cn2ncc3c(N4CCN(c5ccccc5C)CC4)ncnc32)cc1 | 15.8 µM [falling, partial curve]
9 | COC(=O)c1cccc(NC(=O)c2nn(C)c(=O)c3ccccc23)c1 | 10 µM [rising, partial curve]

Remaining list, next part.

Row | SMILES | AC50
23 | CCNc1ncc2nc(-c3cc(F)cc(F)c3)c(=O)n(CCC#N)c2n1 | 5.01 µM [rising, partial curve]
24 | COc1ccc(N=C2SC(CC(=O)Nc3ccccc3)C(=O)N2CC2CCCO2)cc1 (stereo not drawn) | 10 µM [falling, partial curve]
25 | O=C(c1ccccc1)c1cccn1CC(=O)N1CCN(C2CCCCC2)CC1 | 0.0316 µM [falling, full curve]
26 | Cn1c(=O)cc(N2CCc3ccccc32)[nH]c1=O | 10 µM [rising, single point]
27 | Cc1cccc2cc(CN(Cc3ccc(F)cc3)C(=O)N(C)C)c3nnnn3c12 | 1 µM [rising, full curve]
28 | CC1(C)NC(=O)N(CC(O)CN2C(=O)NC(C)(C)C2=O)C1=O | 25.1 µM [falling, single point]
29 | Cc1cccc(-n2nnc(C(=O)NCc3ccco3)c2N)c1 | 0.01 µM [falling, full curve, poor fit]
30 | CCOC(=O)c1sc(NC(NC(=O)c2ccco2)(C(=O)OC)C(F)(F)F)nc1C (stereo not drawn) | 12.6 µM [rising, partial curve]
31 | COc1ccc(N2CCN(c3ccc(NC(=O)c4ccc5c(c4)OCO5)cc3C#N)CC2)cc1 | 0.00398 µM [falling, full curve, poor fit]
32 | COc1ccc(OC)c2[nH]c(=O)c(CCNS(=O)(=O)c3ccc(C)cc3)cc12 | 2 µM [rising, single point]
33 | CCCc1noc2c1C(c1ccoc1)C(C#N)=C(N)N2 (stereo not drawn) | 0.158 µM [falling, partial curve]
34 | COc1ccc2[nH]cc(C(=O)CN3CCCCC3)c2c1 | 6.31 µM [falling, partial curve, poor fit]
35 | Cc1ccc(S(=O)(=O)NCc2ccncc2)cc1 | 0.1 µM [falling, partial curve, poor fit]
36 | N#Cc1cccc(NC(=O)c2nc(-c3ccccc3)n(-c3ccccc3)n2)c1 | 20 µM [falling, single point]
37 | O=c1[nH]c2cc(Cl)ccc2c(O)c1-c1cccc(Oc2ccccc2)c1 | 15.8 µM [falling, partial curve, poor fit]
38 | COc1ccc(C2CC(=O)c3cnc(NC(=O)c4ccccc4)nc3C2)c(OC)c1 (stereo not drawn) | 10 µM [rising, single point]
39 | Nc1c(C(=O)NC2CCCC2)c2nc3ccccc3nc2n1N | 10 µM [rising, partial curve]
40 | COc1ccccc1CNC(=O)c1cnc2sccn2c1=O | 10 µM [rising, partial curve]
41 | Cn1c(=O)[nH]c(=O)c2c1ncn2CCCc1ccccc1 | 12.6 µM [rising, single point]
42 | CCN(CCCNC(=O)CCc1nc(-c2ccc(C)cc2)no1)c1cccc(C)c1 | 0.00316 µM [falling, full curve, poor fit]
43 | Cc1cc(NC(=O)c2ccc(S(=O)(=O)N(C)C)cc2)no1 | 0.2 µM [falling, partial curve]
